This is an account of results in paper doi:10.1101/2025.10.29.685130.

The chains behind the UniProt entries cited, without tags or fusion partners.
UniProt P63141: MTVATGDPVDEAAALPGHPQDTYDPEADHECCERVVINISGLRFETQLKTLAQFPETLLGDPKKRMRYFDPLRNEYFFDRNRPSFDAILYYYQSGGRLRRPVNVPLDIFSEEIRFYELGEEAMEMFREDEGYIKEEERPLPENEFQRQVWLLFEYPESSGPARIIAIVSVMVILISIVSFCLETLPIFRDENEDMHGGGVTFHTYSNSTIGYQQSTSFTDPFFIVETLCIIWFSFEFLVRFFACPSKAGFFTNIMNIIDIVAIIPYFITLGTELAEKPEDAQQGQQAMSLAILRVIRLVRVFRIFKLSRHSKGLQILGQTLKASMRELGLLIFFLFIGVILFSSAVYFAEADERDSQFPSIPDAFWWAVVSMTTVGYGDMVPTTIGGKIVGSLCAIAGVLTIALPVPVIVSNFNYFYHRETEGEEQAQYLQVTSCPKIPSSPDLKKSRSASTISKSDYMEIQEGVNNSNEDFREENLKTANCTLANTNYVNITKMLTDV

B1: Add1 (protein, UniProt Q9QYC0 1-735)
chain: MNGDTRAAVVTSPPPTTAPHKERYFDRVDENNPEYLRERNMAPDLRQDFNMMEQKKRVSMILQSPAFCEELESMIQEQFKKGKNPTGLLALQQIADFMTASVPNVYPAAPQGGMAALNMSLGMVTPVNDLRGSDSIAYDKGEKLLRCKLAAFYRLADLFGWSQLIYNHITTRVNSEQEHFLIVPFGLLYSEVTASSLVKVNLQGDIVDRGSTNLGVNQAGFTLHSAVYAARPDAKCIVHIHTPAGAAVSAMKCGLLPISPEALSLGDVAYHDYHGILVDEEEKILIQKNLGPKSKVLILRNHGLVSVGESVEEAFYYIHNLVVACEIQVRTLASAGGPDNLVLLDPGKYKAKSRSPGTPAGEGSGSPPKWQIGEQEFEALMRMLDNLGYRTGYPYRYPALRERSKKYSDVEVPASVTGHSFASDGDSGTCSPLRHSFQKQQREKTRWLHSGRGDDASEEGQNGSSPKSKTKWTKEDGHRTSTSAVPNLFVPLNTNPKEVQEMRNKIREQNLQDIKTAGPQSQVLCGVMMDRSLVQGELVTASKAIIEKEYQPHVIVSTTGPNPFNTLTDRELEEYRREVERKQKGSEENLDETREQKEKSPPDQSAVPNTPPSTPVKLEEDLPQEPTSRDDSDATTFKPTPPDLSPDEPSEALAFPAVEEEAHASPDPTQPPAEADPEPASAPTPGAEEVASPATEEGSPMDPGSDGSPGKSPSKKKKKFRTPSFLKKSKKKSDS
B2: Gas7 (protein, UniProt Q60780 1-421)
chain: MATALQKPGMVPPPPGEESQTVILPPGWHSYLSPQGRRYYVNTTTNETTWERPSSSPGISASPAPHRSSLPTTVNGYHASGTPAHPPETAHMSLRKSTGDSQNLGSSSPGRKQSKENTITINCVTFPHPDTMPEQQLLKPTEWSYCDYFWADKKDPQGNGTVAGFELLLQKQLKGKQMQKEMSEFIRERIKIEEEYAKNLAKLSQNSLAAQEEGSLGEAWAQVKKSLADEAEVHLKFSAKLHSEVEKPLMNFRENFKKDMKKCDHHIADLRKQLASRYASVEKARKALTERQKDLEMKTQQLEIKLSNKTEEDIKKARRKSTQAGDDLMRCVDLYNQAQSKWFEEMVTTTLELERLEVERVEMIRQHLCQYTQLRHETDMFNQSTVEPVDQLLRKVDPAKDRELWVREHKTGNIRPVDMEI
B3: AP3d1 (protein, UniProt O54774 1-1199)
chain: MALKMVKGSIDRMFDKNLQDLVRGIRNHKEDEAKYISQCIDEIKQELKQDNIAVKANAVCKLTYLQMLGYDISWAAFNIIEVMSASKFTFKRVGYLAASQCFHEGTDVIMLTTNQIRKDLSSPSQYDTGVALTGLSCFVTPDLARDLANDIMTLMSHTKPYIRKKAVLIMYKVFLKYPESLRPAFPRLKEKLEDPDPGVQSAAVNVICELARRNPKNYLSLAPLFFKLMTSSTNNWVLIKIIKLFGALTPLEPRLGKKLIEPLTNLIHSTSAMSLLYECVNTVIAVLISLSSGMPNHSASIQLCVQKLRILIEDSDQNLKYLGLLAMSKILKTHPKSVQSHKDLILQCLDDKDESIRLRALDLLYGMVSKKNLMEIVKKLMTHVDKAEGTTYRDELLTKIIDICSQSNYQHITNFEWYISILVELTRLEGTRHGHLIAAQMLDVAIRVKAIRKFAVSQMSSLLDSAHLVASSTQRNGICEVLYAAAWICGEFSEHLQGPQQTLEAMLRPKVTTLPGHIQAVYVQNVVKLYASILQQKEQAADTEAAQEVTQLLVERLPQFVQSADLEVQERASCILQLVKHVQKLQAKGVPVAEEVSALFAGELNPVAPKAQKKVPVPEGLDLDAWINEPPSDSESEDEKPKAIFHEEEPRHTRRRQPEEDEEELARRREARKQEQANNPFYIKSSPSPQKRYQDAPGVEHIPVVQIDLSVPLKVPGMPMSDQYVKLEEQRRHRQRLEKDKKRKKKEKGKRRHSSLPTESDEDIAPAQRVDIITEEMPENALPSDEDDKDPNDPYRALDIDLDKPLADSEKLPVQKHRNAEAVKSPEKEGVLGVEKKSKKPKKKEKKTKEREREKKDKKGEDLDFWLSTTPPPAAAPIPAPSTEELAASTITSPKDECEVLKGEEEDHVDHDQERKSSRHKKKKHRKEKEKEERPRDKKKAKKKQVAPLENGAAAEEEEEPIPPMSSYCLLAESPYIKVTYDIQASLQKDSQVTVSIILENQSSSFLKNMELNVLDSLNTKMTRPEGSSVHDGVPVPFQLPPGVSNEAQFVFTIQSIVMAQKLKGTLSFIAKDDEGATHEKLDFRLHFSCSSYLITTPCYSDAFAKLLESGDLSMNSIKVDGISMSFQNLLAKICFYHHFSVVERVDSCASMYSRSIQGHHVCLLVKKGESSVSVDGKCSDATLLSSLLEEMKTTLAQC
B4: Gda (protein, UniProt Q9R111 1-454)
chain: MCAARTPPLALVFRGTFVHSTWTCPMEVLRDHLLGVSDSGKIVFLEESSQQEKLAKEWCFKPCEIRELSHHEFFMPGLVDTHIHAPQYAFAGSNVDLPLLEWLNKYTFPTEQRFRSTDVAEEVYTRVVRRTLKNGTTTACYFGTIHTDSSLILAEITDKFGQRAFVGKVCMDLNDTVPEYKETTEESVKETERFVSEMLQKNYPRVKPIVTPRFTLSCTETLMSELGNIAKTHDLYIQSHISENREEIEAVKSLYPSYKNYTDVYDKNNLLTNKTVMAHGCYLSEEELNIFSERGASIAHCPNSNLSLSSGLLNVLEVLKHKVKIGLGTDVAGGYSYSMLDAIRRAVMVSNVLLINKVNEKNLTLKEVFRLATLGGSQALGLDSEIGNFEVGKEFDALLINPRASDSPIDLFYGDFVGDISEAVIQKFLYLGDDRNIEEVYVGGKQVVPFSSSV
B5: Kvβ2 (protein, UniProt P62482 1-367)
chain: MYPESTTGSPARLSLRQTGSPGMIYSTRYGSPKRQLQFYRNLGKSGLRVSCLGLGTWVTFGGQITDEMAEHLMTLAYDNGINLFDTAEVYAAGKAEVVLGNIIKKKGWRRSSLVITTKIFWGGKAETERGLSRKHIIEGLKASLERLQLEYVDVVFANRPDPNTPMEETVRAMTHVINQGMAMYWGTSRWSSMEIMEAYSVARQFNLIPPICEQAEYHMFQREKVEVQLPELFHKIGVGAMTWSPLACGIVSGKYDSGIPPYSRASLKGYQWLKDKILSEEGRRQQAKLKELQAIAERLGCTLPQLAIAWCLRNEGVSSVLLGASNAEQLMENIGAIQVLPKLSSSIVHEIDSILGNKPYSKKDYRS
B6: septin 8 (protein, UniProt Q8CHH9 1-429)
chain: MAATDLERVSNAEPEPRSLSLGGHVGFDSLPDQLVSKSVTQGFSFNILCVGETGIGKSTLMNTLFNTTFETEEASHHEECVRLRPQTYDLQESNVHLKLTIVDAVGFGDQINKDDSYRPIVDYIDAQFENYLQEELKIRRSLFDYHDTRIHVCLYFITPTGHSLKSLDLVTMKKLDSKVNIIPIIAKADTISKSELHKFKIKIMGELVSNGVQIYQFPTDDEAVAEINAVMNAHLPFAVVGSTEEVKVGNKLVRARQYPWGVVQVENENHCDFVKLREMLIRVNMEDLREQTHSRHYELYRRCKLEEMGFQDSDGDSQPFSLQETYEAKRKEFLSELQRKEEEMRQMFVNKVKETELELKEKERELHEKFEHLKRIHQEEKRKVEEKRRELEEETNAFNCRKAAMEALQSQALHATSQQPLRKDKDKKN
B7: AP3b2 (protein, UniProt Q9JME5 1-1082)
chain: MSAAPAYSEDKGGSAGPGEPEYGHDPASGGIFSSDYKRHDDLKEMLDTNKDSLKLEAMKRIVAMIARGKNASDLFPAVVKNVACKNIEVKKLVYVYLVRYAEEQQDLALLSISTFQRGLKDPNQLIRASALRVLSSIRVPIIVPIMMLAIKEAASDMSPYVRKTAAHAIPKLYSLDSDQKDQLIEVIEKLLADKTTLVAGSVVMAFEEVCPERIDLIHKNYRKLCNLLIDVEEWGQVVIISMLTRYARTQFLSPTQNESLLEENPEKAFYGSEEDEAKGPGSEEAATAALPARKPYVMDPDHRLLLRNTKPLLQSRSAAVVMAVAQLYFHLAPKAEVGVIAKALVRLLRSHSEVQYVVLQNVATMSIKRRGMFEPYLKSFYIRSTDPTQIKILKLEVLTNLANETNIPTVLREFQTYIRSMDKDFVAATIQAIGRCATNIGRVRDTCLNGLVQLLSNRDELVVAESVVVIKKLLQMQPAQHGEIIKHLAKLTDNIQVPMARASILWLIGEYCEHVPKIAPDVLRKMAKSFTAEEDIVKLQVINLAAKLYLTNSKQTKLLTQYVLSLAKYDQNYDIRDRARFTRQLIVPSEQGGALSRHAKKLFLAPKPAPILESSFKDRDHFQLGSLSHLLNAKATGYQELPDWPEEAPDPSVRNVEVPEWTKCSNREKRKEKEKPFYSDSEGESGPTESADSEPESESESESKSSSGSGSGESSSESDNEEEDEEKGGGSESEQSEEEDEKKKKTKKKKASEGHREGSSSEEGSDSSSSSESEVTSESEEEQVEPASWRKKTPPGSKSAPVAKEISLLDLEDFTPPSVQPVSPPMVVSTSLAADLEGLTLTDSSLVPSLLSPVSSIGRQELLHRVAGEGLSVDYAFSRQPFSGDPHMVSLHIYFSNNSETPIKGLHVGTPKLPAGISIQEFPEIESLAPGESTTTVMGINFCDSTQAANFQLCTQTRQFYVSIQPPVGELMAPVFMSENEFKKEQGKLTGMNEITEKLTLPDTCRSDHMVVQKVTATANLGRVPCGTSDEYRFAGRTLTSGSLVLLTLDARAAGAAQLTVNSEKMVIGTMLVKDVIQALTQ
B8: septin 5 (protein, UniProt Q9Z2Q6 1-369)
chain: MSTGLRYKSKLATPEDKQDIDKQYVGFATLPNQVHRKSVKKGFDFTLMVAGESGLGKSTLVHSLFLTDLYKDRKLLSAEERINQTVEILKHTVDIEEKGVKLKLTIVDTPGFGDAVNNSECWKPITDYVDQQFEQYFRDESGLNRKNIQDNRVHCCLYFISPFGHGLRPVDVGFMKALHEKVNIVPLIAKADCLVPSEIRKLKDRIREEIDKFGIHVYQFPECDSDEDEDFKQQDRELKESAPFAVIGSNTVVEAKGQRVRGRLYPWGIVEVENQAHCDFVKLRNMLIRTHMHDLKDVTCDVHYENYRAHCIQQMTSKLTQDSRMESPIPILPLPTPDAETEKLIRMKDEELRRMQEMLQKMKQQMQDQ
B9: septin 11 (protein, UniProt Q8C1B7 1-431)
chain: MAVAVGRPSNEELRNLSLSGHVGFDSLPDQLVNKSTSQGFCFNILCVGETGIGKSTLMDTLFNTKFESDPATHNEPGVRLKARSYELQESNVRLKLTIVDTVGFGDQINKDDSYKPIVEYIDAQFEAYLQEELKIKRSLFNYHDTRIHACLYFIAPTGHSLKSLDLVTMKKLDSKVNIIPIIAKADTIAKNELHKFKSKIMSELVSNGVQIYQFPTDEETVAEINATMSVHLPFAVVGSTEEVKIGNKMAKARQYPWGVVQVENENHCDFVKLREMLIRVNMEDLREQTHTRHYELYRRCKLEEMGFKDTDPDSKPFSLQETYEAKRNEFLGELQKKEEEMRQMFVMRVKEKEAELKEAEKELHEKFDLLKRTHQEEKKKVEDKKKELEEEVSNFQKKKAAAQLLQSQAQQSGAQQTKKDKDKKNPWLCTE

These are yes or no findings as the source states them, for the method shown. In cells and extracts the contact can be indirect. A yes stands for co-enrichment or nearness to the bait. Other partners may have been found.

For the assay, the target named is phosphoY458 Kv1.2 (mouse) (UniProt P63141). In words: affinity purification with mass spectrometry.
On to B1, for which the binding entry was “binds”.
With B2, the binding result is reported as “binds”.
In the case of B3, the binding entry is “binds”.
As to B4, the binding entry is recorded as “binds”.
The value for B5 was “binds”.
To B6 belongs “binds”; to B7, “binds”; to B8, “binds”.
The value for B9 was “binds”.
